Experimental data reported in US6429288B1 (Roche Diagnostics GmbH, priority 1997, dated 2002).

Experiment: general procedure: Fmoc solid-phase peptide synthesis; Fmoc-L-Trp-TCP
Conditions: whole synthesis, scale 0.03 mmol

Substance | final HPLC purity | isolated mass
T-Ada-Aba-W | >95% | 2.7 mg
T-Ada-Ava-W | >95% | 2.7 mg
T-Ada-SAW | >98% | 2.6 mg
